Results from US20160186068A1, “METHODS AND SYSTEMS FOR PROCESSING CELLULOSIC BIOMASS” (SHELL OIL COMPANY, priority 2014, published 2016).
At least one read-out could not be matched to a standard name with certainty.

Test: Extraction of phenols from 1% aqueous solution with toluene or heptane (Examples 5E-5H)
Details: Example 5H, 1% m-cresol solution extracted with heptane

With `Cc1cccc(O)c1` [cresol, meta-cresol] as the compound, how does the extraction recovery read?
Its extraction recovery is 44%.
